The text below walks through data of the supplement of paper PMC10032668.

Sequences of proteins named here, by UniProt entry; tags and fusion partners are left off.
AP2A2, O94973, UniProt O94973, whole entry: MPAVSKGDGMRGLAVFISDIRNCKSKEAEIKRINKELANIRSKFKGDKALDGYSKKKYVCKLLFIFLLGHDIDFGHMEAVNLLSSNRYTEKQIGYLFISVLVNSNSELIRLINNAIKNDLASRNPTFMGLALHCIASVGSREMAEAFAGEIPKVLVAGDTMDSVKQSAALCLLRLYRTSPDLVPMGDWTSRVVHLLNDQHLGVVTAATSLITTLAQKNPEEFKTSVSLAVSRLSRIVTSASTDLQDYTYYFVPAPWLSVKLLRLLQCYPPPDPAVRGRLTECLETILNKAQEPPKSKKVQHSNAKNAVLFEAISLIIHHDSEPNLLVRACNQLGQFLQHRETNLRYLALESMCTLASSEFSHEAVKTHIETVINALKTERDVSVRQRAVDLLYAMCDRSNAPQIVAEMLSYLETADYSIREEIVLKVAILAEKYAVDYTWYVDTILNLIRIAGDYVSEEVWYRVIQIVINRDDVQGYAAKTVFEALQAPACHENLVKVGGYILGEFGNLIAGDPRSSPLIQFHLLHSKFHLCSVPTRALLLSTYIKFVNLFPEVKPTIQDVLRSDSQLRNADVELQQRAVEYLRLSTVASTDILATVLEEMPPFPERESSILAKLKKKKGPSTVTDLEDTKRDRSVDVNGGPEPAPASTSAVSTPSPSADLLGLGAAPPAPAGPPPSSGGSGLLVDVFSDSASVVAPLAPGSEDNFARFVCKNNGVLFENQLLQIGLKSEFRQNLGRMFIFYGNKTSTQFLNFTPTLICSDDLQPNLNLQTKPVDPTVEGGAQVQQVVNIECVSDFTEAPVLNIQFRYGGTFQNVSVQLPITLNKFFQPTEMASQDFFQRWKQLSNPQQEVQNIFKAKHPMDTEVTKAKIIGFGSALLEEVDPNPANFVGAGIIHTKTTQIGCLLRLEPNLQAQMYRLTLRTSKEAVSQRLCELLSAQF
CRIPT, Q9P021, UniProt Q9P021, whole entry: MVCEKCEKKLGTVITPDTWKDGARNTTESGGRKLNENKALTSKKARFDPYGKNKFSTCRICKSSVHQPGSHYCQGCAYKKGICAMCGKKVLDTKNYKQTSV

± gives the standard deviation of the averaged measurements. This is one part of the list. Only hits are listed; about a third recur on repeated control peptides.

Common to all, as to test: PRISMA enrichment of interactor (LFQ) in peptide spot vs all other peptide spots (log2 fold change); higher = stronger / more specific binding of the interactor to the peptide
For one assay, the target named is ALKBH2, Q6NS38. As to the method: (§1)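 PRISMA: 221 full-length sORF-encoded peptides (3-15 aa), plus SOS1/GLUT1 control peptides, were spot-synthesized on cellulose membranes in triplicate. Membranes were incubated with HEK293T lysate, and bound proteins were identified by LC-MS/MS with LFQ. Enrichment is the log2 fold change versus all other peptide spots; only significant interactors are listed (cutoff c=6, x0=2.8).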

In another assay the target is ALYREF, Q86V81. As to the method:
as §1

For the next assay, the target named is AMMECR1L, Q6DCA0. As to the method:
as §1

The target in a further assay is AP2A2, O94973. As to the method: as §1
The target in the next assay is C11orf98, E9PRG8. As to the method:
as §1

The next assay addresses C12orf65, Q9H3J6. Here is the method: as §1
For a further assay, the target named is C19orf53, Q9UNZ5. Here is the method:
as §1

A further assay concerns the target C8orf33, Q9H7E9. Here is the method: as §1
The target in another assay is CCDC137, Q6PK04. As to the method: as §1
The next assay deals with CCDC59, Q9P031. Here is the method: as §1
For another assay, the target named is CFAP20, Q9Y6A4. Here is the method:
as §1

The next assay addresses CHID1, Q9BWS9. Here is the method: as §1
The next assay has as its target CHTOP, Q9Y3Y2. Here is the method:
as §1

Another assay deals with CKMT1A, P12532. Here is the method:
as §1

The target in a further assay is CRIPT, Q9P021. Here is the method: as §1
The next assay deals with CSNK1A1, P48729. Here is the method:
as §1

A further assay addresses CSNK1D, P48730. Here is the method:
as §1

The target of the next assay is CSNK1E, P49674. As to the method:
as §1

Another assay deals with CSRP2, Q16527. Here is the method:
as §1

Another assay concerns the target CXorf56, Q9H5V9. Here is the method: as §1
For the next assay, the target named is DDX47, Q9H0S4. Here is the method:
as §1

The target of another assay is DDX49, Q9Y6V7. As to the method: as §1
The target in another assay is DECR2, Q9NUI1. As to the method: as §1
Another assay deals with EDF1, O60869. As to the method:
as §1

For another assay, the target named is EEFSEC, P57772. As to the method:
as §1

For the next assay, the target named is EHHADH, Q08426. As to the method:
as §1

The next assay concerns the target EMG1, Q92979. As to the method: as §1
Another assay concerns the target FBL, P22087. As to the method: as §1
The target of a further assay is GABARAPL2, P60520. Here is the method: as §1
The target in another assay is GAR1, Q9NY12. As to the method: as §1
A further assay addresses AKR1A1, P14550. As to the method: as §1
The next assay addresses ANP32B, Q92688. As to the method:
as §1

The next assay concerns the target ANP32E, Q9BTT0. Here is the method: as §1
A further assay addresses ASNA1, O43681. Here is the method: as §1
The target in a further assay is MRPL38, Q96DV4. As to the method:
as §1

The target in the next assay is NAP1L1, P55209. Here is the method: as §1
The target in the next assay is STAG2, Q8N3U4. Here is the method: as §1
In a further assay the target is STXBP3, O00186. Here is the method: as §1

As for MQEVWGELGD [PDGFD], the “PRISMA enrichment of interactor (log2)” value with ALKBH2, Q6NS38 was determined as 5.71; in the assay with ALYREF, Q86V81 it was 6.21 ± 0.18; with AMMECR1L, Q6DCA0 it was 4.47; with AP2A2, O94973, 4.92; with C11orf98, E9PRG8, 5.08; with C12orf65, Q9H3J6 it was 5.64. Further, the “PRISMA enrichment of interactor (log2)” value amounted to 8.52 in the assay with C19orf53, Q9UNZ5; 4.34 in the assay with C8orf33, Q9H7E9; 8.02 with CCDC137, Q6PK04; 5.09 in the assay with CCDC59, Q9P031; 4.87 in the assay with CFAP20, Q9Y6A4; 3.93 in the assay with CHID1, Q9BWS9. Further, the “PRISMA enrichment of interactor (log2)” value with CHTOP, Q9Y3Y2 came out at 5.99; with CKMT1A, P12532, 9.63; with CRIPT, Q9P021, 4.43; in the assay with CSNK1A1, P48729 it was 8.43; with CSNK1D, P48730 it was 4.47; with CSNK1E, P49674 it was 7.17. The “PRISMA enrichment of interactor (log2)” value in the assay with CSRP2, Q16527 was 4.91; with CXorf56, Q9H5V9, 6.14; with DDX47, Q9H0S4, 5.24; in the assay with DDX49, Q9Y6V7, 6.51; in the assay with DECR2, Q9NUI1 it was 5.22; in the assay with EDF1, O60869 it was 4.99. Further, the “PRISMA enrichment of interactor (log2)” value in the assay with EEFSEC, P57772 worked out at 6.92; in the assay with EHHADH, Q08426, 7.08; with EMG1, Q92979, 7.72; with FBL, P22087, 5.62; with GABARAPL2, P60520, 6.13; in the assay with GAR1, Q9NY12, 5.41.
For the molecule MRKLRPRKVEALV [NRSN2], the “PRISMA enrichment of interactor (log2)” value with AKR1A1, P14550 turned out to be 4.85; with ANP32B, Q92688, 7.02; in the assay with ANP32E, Q9BTT0, 7.12; with ASNA1, O43681, 5.32; with MRPL38, Q96DV4, 5.41; in the assay with NAP1L1, P55209, 5.78. Further, the “PRISMA enrichment of interactor (log2)” value in the assay with STAG2, Q8N3U4 came to 5.82; with STXBP3, O00186, 11.6.
